Assay results: PubChem BioAssay AID330 (DTP/NCI, 2004)
The list shows only some results of the screen, not a fair sample: it gathers tests that were run many times, whatever their T/C, doses with no T/C, and many T/C values between a quarter and a half above the control. Further doses and runs are listed elsewhere. T/C is the treated group as % of the vehicle group. Some doses have a count of surviving animals in place of a T/C: the source holds a T/C of zero for them, seemingly a mark for toxic or unscored doses. Some survivor counts are full or nearly so, which does not show that the dose was tolerated: the source hardly ever lists a survival T/C far under the control, and the zero likely stands for such cases as well. Counts of survivors are from the toxicity check (mostly the fifth day) where no day follows; animals may have died later. Schedule codes are those of the source, taken here to give the interval after Q, in days (D) or hours (H), and the number of doses after X. Some entries were tested several times; the results are listed from low to high. For survival time, the PubChem record calls one and a half times the control and up active, and a quarter to a half above the control has no call in these data; cut-offs in other NCI protocols can differ. Some T/C values are followed by the survivors on the day toxicity was checked, most often the fifth; without a count, all were alive then.

Tested on: P388 leukemia ip, CD2F1 mice, survival T/C
Assay: NCI In Vivo Anticancer Drug Screen. Data for tumor model P388 Leukemia (intraperitoneal) in CD2F1 (CDF1) mice
Details: T/C endpoint: median survival time, higher T/C = longer survival
[1] = dose: 60.0 mg/kg/injection, schedule: Q01DX005 (ip), vehicle: saline
[2] = dose: 120.0 mg/kg/injection, schedule: Q01DX005 (ip), vehicle: saline
[3] = dose: 240.0 mg/kg/injection, schedule: Q01DX005 (ip), vehicle: saline
[4] = dose: 100.0 mg/kg/injection, schedule: Q01DX009 (ip), vehicle: saline with Tween-80
[5] = dose: 200.0 mg/kg/injection, schedule: Q01DX009 (ip), vehicle: saline with Tween-80
[6] = dose: 120.0 mg/kg/injection, schedule: Q01DX005 (ip), vehicle: saline with Tween-80
[7] = dose: 240.0 mg/kg/injection, schedule: Q01DX005 (ip), vehicle: saline with Tween-80
[8] = dose: 100.0 mg/kg/injection, schedule: Q01DX005 (ip), vehicle: Klucel (hydroxypropylcellulose) (HPC)
[9] = dose: 200.0 mg/kg/injection, schedule: Q01DX005 (ip), vehicle: Klucel (hydroxypropylcellulose) (HPC)
[10] = dose: 50.0 mg/kg/injection, schedule: Q01DX009 (ip), vehicle: saline
[11] = dose: 12.5 mg/kg/injection, schedule: Q01DX001 (ip), vehicle: saline
[12] = dose: 25.0 mg/kg/injection, schedule: Q01DX001 (ip), vehicle: saline
[13] = dose: 50.0 mg/kg/injection, schedule: Q01DX001 (ip), vehicle: saline
[14] = dose: 100.0 mg/kg/injection, schedule: Q01DX001 (ip), vehicle: saline
[15] = dose: 200.0 mg/kg/injection, schedule: Q01DX001 (ip), vehicle: saline

With `COC(=O)CC1OCC=C2CN3CCC45C6=CC(=O)C(=O)C([N+](=O)[O-])=C6NC4C1C2CC35` (configuration not stated) the survivor count (dose: 30.0 mg/kg/injection, schedule: Q01DX005 (ip), vehicle: suspension in saline) was 0 of 6, the survivor count [1] was 0 of 6 and the survivor count [2] was 0 of 6. The survivor count [3] was 0 of 6.
For `CC(=N\N)/C(C)=N/N`, the survivor count (dose: 50.0 mg/kg/injection, schedule: Q01DX009 (ip), vehicle: saline with Tween-80) was 4 of 6, the survivor count [4] was 1 of 6 and 3 of 6 and the survivor count [5] was 0 of 6.
In the case of `N#Cc1nnn(Cc2ccccc2)c1N`, the survivor count [4] was 4 of 6 and the survivor count [5] was 0 of 6.
`COc1ccc(CCNC2Oc3ccc([N+](=O)[O-])cc3-c3nc(C)c(C#N)cc32)cc1OC` (configuration not stated) was tested, and the survivor count [6] was 6 of 6 and the survivor count [7] was 6 of 6.
For `Cc1cn2ccccc2c[n+]1=O`, the survivor count (dose: 20.0 mg/kg/injection, schedule: Q01DX009 (ip), vehicle: saline sonified) was 5 of 6.
For `Cc1ccccc1C(=O)Nc1ccccc1-c1ccccc1N`, the survivor count (dose: 200.0 mg/kg/injection, schedule: Q04DX003 (ip), vehicle: saline) was 6 of 6 and the survivor count (dose: 400.0 mg/kg/injection, schedule: Q04DX003 (ip), vehicle: saline) was 6 of 6.
For `COc1ccc2c(N/N=C/c3ccc4c(c3)OCO4)cc(C)nc2c1`, the survivor count (dose: 50.0 mg/kg/injection, schedule: Q01DX005 (ip), vehicle: Klucel (hydroxypropylcellulose) (HPC)) was 3 of 6, the survivor count [8] was 0 of 6 and the survivor count [9] was 0 of 6.
For `CCOC(=O)CC(=O)C(C)(OCC)OCC`, the T/C [10] was 134 % of control.
In the case of `CCC(C(=O)Nc1ccccc1-c1ccccc1)c1ccccc1` (configuration not stated), the survivor count [10] was 6 of 6.
In the case of `Cc1cc(NCCCCCCNc2cc(C)nc3cc(N(C)C)ccc23)c2ccc(N(C)C)cc2n1`, the T/C (dose: 3.12 mg/kg/injection, schedule: Q01DX009 (ip), vehicle: distilled water + Tween-80 + alcohol) was 130 % of control, the T/C (dose: 6.25 mg/kg/injection, schedule: Q01DX009 (ip), vehicle: distilled water + Tween-80 + alcohol) was 127 % of control [4 of 6 alive] and the survivor count (dose: 50.0 mg/kg/injection, schedule: Q01DX009 (ip), vehicle: distilled water + Tween-80 + alcohol) was 3 of 6 and 6 of 6. For the same compound, the survivor count (dose: 100.0 mg/kg/injection, schedule: Q01DX009 (ip), vehicle: distilled water + Tween-80 + alcohol) was 2 of 6 and the survivor count (dose: 200.0 mg/kg/injection, schedule: Q01DX009 (ip), vehicle: distilled water + Tween-80 + alcohol) was 0 of 6.
`Cc1ccc(C2(c3ccccc3)OC3OC=CC32)cc1` (configuration not stated) was tested, and the survivor count [6] was 5 of 6.
`Nc1nc(SCc2ccccc2)c2ncn(CCCl)c2n1` was tested, and the survivor count (dose: 12.5 mg/kg/injection, schedule: Q01DX009 (ip), vehicle: saline) was 6 of 6, the survivor count (dose: 12.5 mg/kg/injection, schedule: Q01DX009 (ip), vehicle: suspension in saline) was 6 of 6 and the survivor count (dose: 25.0 mg/kg/injection, schedule: Q01DX009 (ip), vehicle: suspension in saline) was 6 of 6.
`O=c1c(CN(CCO)CCO)c(-c2ccccc2)sc2ccccc12` was tested, and the survivor count (dose: 200.0 mg/kg/injection, schedule: Q04DX002 (ip), vehicle: saline with Tween-80) was 5 of 6 and the survivor count (dose: 400.0 mg/kg/injection, schedule: Q04DX002 (ip), vehicle: saline with Tween-80) was 0 of 6.
With `Nc1csc(Nc2c3ccccc3nc3ccccc23)n1` the survivor count (dose: 50.0 mg/kg/injection, schedule: Q04DX002 (ip), vehicle: distilled water + Tween-80) was 5 of 6, the survivor count (dose: 100.0 mg/kg/injection, schedule: Q04DX002 (ip), vehicle: distilled water + Tween-80) was 2 of 6 and the survivor count (dose: 200.0 mg/kg/injection, schedule: Q04DX002 (ip), vehicle: distilled water + Tween-80) was 1 of 6. The survivor count (dose: 400.0 mg/kg/injection, schedule: Q04DX002 (ip), vehicle: distilled water + Tween-80) was 1 of 6.
`Cc1cc(C)c(C#N)c(OCC2CCCO2)n1` (configuration not stated) was tested, and the survivor count (dose: 200.0 mg/kg/injection, schedule: Q01DX005 (ip), vehicle: saline with Tween-80) was 5 of 5.
For `Cc1cc2cccc(Br)c(=O)c2o1`, the survivor count (dose: 100.0 mg/kg/injection, schedule: Q01DX001 (ip), vehicle: saline with Tween-80) was 2 of 6, the survivor count (dose: 200.0 mg/kg/injection, schedule: Q01DX001 (ip), vehicle: saline with Tween-80) was 0 of 6 and the survivor count (dose: 400.0 mg/kg/injection, schedule: Q01DX001 (ip), vehicle: saline with Tween-80) was 0 of 6.
In the case of `N/C(=N\N=C\c1cccnc1)SCCCCBr`, the survivor count (dose: 1.56 mg/kg/injection, schedule: Q01DX009 (ip), vehicle: saline) was 5 of 6, the T/C (dose: 3.12 mg/kg/injection, schedule: Q01DX001 (ip), vehicle: saline) was 148 % of control and the survivor count (dose: 3.12 mg/kg/injection, schedule: Q01DX009 (ip), vehicle: saline) was 0 of 6. The survivor count (dose: 6.25 mg/kg/injection, schedule: Q01DX001 (ip), vehicle: saline) was 0 of 6 and 2 of 6, the survivor count (dose: 6.25 mg/kg/injection, schedule: Q01DX009 (ip), vehicle: saline) was 0 of 6 and the survivor count [11] was 0 of 6. For the same compound, the survivor count [12] was 0 of 6, the survivor count [13] was 0 of 6 and the survivor count [14] was 0 of 6. The survivor count [15] was 0 of 6.
`COc1cc(Br)c(-c2coc3c(OC)c(OC)ccc3c2=O)cc1OC` was tested, and the survivor count [6] was 6 of 6 and the survivor count [7] was 6 of 6.
`C1=CCC2CSCC2C1` (configuration not stated) was tested, and the survivor count (dose: 150.0 mg/kg/injection, schedule: Q01DX001 (ip), vehicle: saline sonified) was 0 of 6.
For `CCCCCCCCCCCCCCCCCCCCCCCCC(O)C(=O)O` (configuration not stated) (tested in a mixture with another compound), the survivor count (dose: 100.0 mg/kg/injection, schedule: Q01DX005 (ip), vehicle: saline with Tween-80) was 6 of 6.
With `CC1(C)CCCc2c(-c3ccccc3)cc3c4ccccc4cc[n+]3c21` the survivor count [5] was 6 of 6.
`C=C1C(=O)OC2/C=C(CO)/C=C\C3OC3(C)CC(OC(=O)/C(C)=C/COC(C)=O)C12` (configuration not stated) was tested, and the survivor count [8] was 0 of 6 and the survivor count [9] was 0 of 6.
`CN(C)CC(CN(C)C)C(=O)c1ccc(Oc2ccc(Cl)cc2)cc1` was tested, and the survivor count (dose: 15.0 mg/kg/injection, schedule: Q01DX005 (ip), vehicle: saline) was 5 of 6, the survivor count (dose: 30.0 mg/kg/injection, schedule: Q01DX005 (ip), vehicle: saline) was 0 of 6 and the survivor count [1] was 0 of 6. The survivor count [2] was 0 of 6 and the survivor count [3] was 0 of 6.
In the case of `O=[Se](OCC(F)(F)F)OCC(F)(F)F`, the survivor count [11] was 0 of 6, the survivor count [12] was 0 of 6 and the survivor count [13] was 0 of 6. The survivor count [14] was 0 of 6 and the survivor count [15] was 0 of 6.
`CC1(C)C(=O)OC(n2cc(F)c(=O)[nH]c2=O)C1=O` (configuration not stated) was tested, and the T/C (dose: 90.0 mg/kg/injection, schedule: Q04DX002 (ip), vehicle: saline with Tween-80) was 130 % of control, the T/C (dose: 180.0 mg/kg/injection, schedule: Q04DX002 (ip), vehicle: distilled water + Tween-80) was 125 % of control and the T/C (dose: 180.0 mg/kg/injection, schedule: Q04DX002 (ip), vehicle: saline with Tween-80) was 139 % of control.
In the case of `CC(C)N1C(C)c2ccccc2OS1=O` (configuration not stated), the survivor count (dose: 200.0 mg/kg/injection, schedule: Q01DX009 (ip), vehicle: Klucel (hydroxypropylcellulose) (HPC)) was 0 of 6.
With `COc1ccc(CSC(=S)Nc2ccc(C)c(Br)c2)cc1` the survivor count (dose: 50.0 mg/kg/injection, schedule: Q01DX009 (ip), vehicle: suspension in saline) was 5 of 6.
For `COc1cc([N+](=O)[O-])c(S(=O)(=O)O)cc1N=N/C(=N/Nc1cc(S(=O)(=O)O)c([N+](=O)[O-])cc1OC)C(=O)Nc1ccccc1`, the survivor count [9] was 6 of 6.
In the case of `CCCCCCC(/C=C/c1ccc(N(C)C)cc1)=N\O`, the survivor count (dose: 400.0 mg/kg/injection, schedule: Q01DX009 (ip), vehicle: saline with Tween-80) was 6 of 6.
